Laboratory results as given in paper PMC2774294.
No constants are given. Whether binding was seen depends on the method and setting. In cells and extracts the contact can be indirect. Some results given as binding are weak or reduced against the parent protein; the word gives no strength.

By UniProt entry, the sequences of proteins in these tests, tags left out.
UniProt Q04206: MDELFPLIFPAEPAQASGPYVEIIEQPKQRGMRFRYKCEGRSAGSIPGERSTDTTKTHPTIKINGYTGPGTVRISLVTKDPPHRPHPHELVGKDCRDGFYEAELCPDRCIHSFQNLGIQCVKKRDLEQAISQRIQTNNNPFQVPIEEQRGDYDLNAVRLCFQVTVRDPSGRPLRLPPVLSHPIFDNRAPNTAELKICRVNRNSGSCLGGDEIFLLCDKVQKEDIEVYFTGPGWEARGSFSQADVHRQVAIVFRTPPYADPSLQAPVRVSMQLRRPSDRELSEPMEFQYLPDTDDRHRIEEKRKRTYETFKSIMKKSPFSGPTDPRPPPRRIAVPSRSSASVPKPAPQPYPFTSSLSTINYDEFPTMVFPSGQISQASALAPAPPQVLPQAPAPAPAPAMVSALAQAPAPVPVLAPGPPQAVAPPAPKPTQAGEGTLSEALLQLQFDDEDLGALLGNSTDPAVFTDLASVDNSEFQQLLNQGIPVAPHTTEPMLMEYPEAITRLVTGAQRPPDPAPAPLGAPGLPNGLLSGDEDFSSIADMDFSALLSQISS

T1: NF-κB subunit p52 (NF-κB2) (human (endogenous in HNE2-LMP1)) (UniProt Q00653)
T1 sequence: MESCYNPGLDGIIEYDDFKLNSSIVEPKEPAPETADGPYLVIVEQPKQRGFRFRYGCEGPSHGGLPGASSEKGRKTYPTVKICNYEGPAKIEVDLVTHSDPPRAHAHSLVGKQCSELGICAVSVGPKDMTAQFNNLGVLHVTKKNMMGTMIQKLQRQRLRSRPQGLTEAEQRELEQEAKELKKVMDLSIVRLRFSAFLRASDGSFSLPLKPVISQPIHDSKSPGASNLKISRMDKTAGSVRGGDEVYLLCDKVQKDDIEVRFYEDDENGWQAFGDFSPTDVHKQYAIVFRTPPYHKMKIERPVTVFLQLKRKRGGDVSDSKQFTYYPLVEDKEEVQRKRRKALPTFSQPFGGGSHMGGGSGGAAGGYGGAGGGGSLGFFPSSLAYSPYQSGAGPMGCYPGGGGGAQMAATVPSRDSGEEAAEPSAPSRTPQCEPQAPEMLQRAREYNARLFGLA


Tests used:
[1] = target: T1, NF-κB subunit p52 (NF-κB2) (human (endogenous in HNE2-LMP1)); assay: co-IP; 200 μg non-denatured nuclear extract of HNE2-LMP1 cells, precleared; 2 μg antibody to one member overnight at 4°C, protein A-Sepharose; buffer 1× PBS, 0.5% Nonidet P-40, 0.5% sodium deoxycholate, 0.1% SDS; three washes; Western blot for the other member; control IgG
[2] = target: NF-κB subunit p65 (RelA) (human (endogenous in HNE2-LMP1)) (UniProt Q04206); assay: as above

binding [1]	binding [2]	Molecule
binds	–	NF-κB subunit p65 (RelA) (from UniProt Q04206 1-551)
–	binds	NF-κB subunit p52 (NF-κB2) (protein, UniProt Q00653 1-454) MESCYNPGLDGIIEYDDFKLNSSIVEPKEPAPETADGPYLVIVEQPKQRGFRFRYGCEGPSHGGLPGASSEKGRKTYPTVKICNYEGPAKIEVDLVTHSDPPRAHAHSLVGKQCSELGICAVSVGPKDMTAQFNNLGVLHVTKKNMMGTMIQKLQRQRLRSRPQGLTEAEQRELEQEAKELKKVMDLSIVRLRFSAFLRASDGSFSLPLKPVISQPIHDSKSPGASNLKISRMDKTAGSVRGGDEVYLLCDKVQKDDIEVRFYEDDENGWQAFGDFSPTDVHKQYAIVFRTPPYHKMKIERPVTVFLQLKRKRGGDVSDSKQFTYYPLVEDKEEVQRKRRKALPTFSQPFGGGSHMGGGSGGAAGGYGGAGGGGSLGFFPSSLAYSPYQSGAGPMGCYPGGGGGAQMAATVPSRDSGEEAAEPSAPSRTPQCEPQAPEMLQRAREYNARLFGLA
